PubChem BioAssay AID1259326, Drosophila RNAi Screening Center, 2017

Assay: 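RNAi screen for genes modifying zinc chloride toxicity in fly cells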
Cell system: Drosophila S2R+ cells
Reagents: long dsRNA against Drosophila genes
Duration: about 5 days (4 days of RNAi, then 1 day of zinc)
Challenge: zinc chloride added to 15 mM final for one day
Read-out: 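Cellular ATP measured by luciferase light as a viable-cell proxy, after 4 days of RNAi and 1 day in 15 mM zinc chloride; replicate z-scores averaged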
Reading the numbers: averaged z-score: higher = more ATP than other wells, i.e. more surviving cells, after zinc; ATP luminescence: higher = more ATP, i.e. more surviving cells
Rule for the call: 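Active if the averaged z-score exceeds 1.5 or falls under -1.5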
The deposit covers 573 reagents; below is a part drawn at random. In the full data, 39 (6.8%) got an active call. 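All actives have raised ATP, meaning more surviving cells; in these data active calls sit at averaged z-scores near 1.5 or above.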 Raw values vary from plate to plate and are shown uncorrected. Entries without a mark were called inactive. Not stated in the record: the amount of reagent.

Against Usp7 [DRSC18909] the deposit lists averaged z-score -0.387; ATP luminescence, replicate 1 = 88812; ATP luminescence, replicate 2 = 72843.
Usp7 [DRSC19604] scored averaged z-score -0.00655; ATP luminescence, replicate 1 = 65571; ATP luminescence, replicate 2 = 79052.
Silencing of Usp7 [DRSC26109] gave: averaged z-score -0.43; ATP luminescence, replicate 1 = 78932; ATP luminescence, replicate 2 = 61421.
For Galphai [DRSC11168], the entry reads averaged z-score 0.321; ATP luminescence, replicate 1 = 1.09e5; ATP luminescence, replicate 2 = 74930.
Against Galphai [DRSC28521], the values are averaged z-score 0.567; ATP luminescence, replicate 1 = 94714; ATP luminescence, replicate 2 = 90631.
With knock-down of Galphai [DRSC37302] the results were averaged z-score -0.264; ATP luminescence, replicate 1 = 63375; ATP luminescence, replicate 2 = 72826.
For Synj [DRSC04526], the values are averaged z-score -0.158; ATP luminescence, replicate 1 = 85295; ATP luminescence, replicate 2 = 75553.
Synj [DRSC36874] scored averaged z-score -0.427; ATP luminescence, replicate 1 = 77542; ATP luminescence, replicate 2 = 54167.
Against Synj [DRSC36875], the entry reads averaged z-score -0.377; ATP luminescence, replicate 1 = 62994; ATP luminescence, replicate 2 = 71591.
Gos28 [DRSC22859] showed averaged z-score -0.218; ATP luminescence, replicate 1 = 81590; ATP luminescence, replicate 2 = 1.02e5.
For Gos28 [DRSC41224], the values are averaged z-score -0.0349; ATP luminescence, replicate 1 = 62673; ATP luminescence, replicate 2 = 85741.
Knock-down of AsnS [DRSC11468] came out at: averaged z-score 1.96 (active); ATP luminescence, replicate 1 = 1.21e5; ATP luminescence, replicate 2 = 1.08e5.
AsnS [DRSC41149] showed averaged z-score 1.09; ATP luminescence, replicate 1 = 87960; ATP luminescence, replicate 2 = 1.02e5.
Depletion of AsnS [DRSC41150] came out at: averaged z-score 1.74 (active); ATP luminescence, replicate 1 = 1.07e5; ATP luminescence, replicate 2 = 1.05e5.
Depletion of SerRS [DRSC00496] resulted in: averaged z-score 0.382; ATP luminescence, replicate 1 = 89773; ATP luminescence, replicate 2 = 1.15e5.
For SerRS [DRSC41173], the values are averaged z-score 0.5; ATP luminescence, replicate 1 = 82588; ATP luminescence, replicate 2 = 91252.
Atg18b [DRSC03108] showed averaged z-score -0.407; ATP luminescence, replicate 1 = 87734; ATP luminescence, replicate 2 = 68263.
Atg18b [DRSC28594] scored averaged z-score -0.0746; ATP luminescence, replicate 1 = 82156; ATP luminescence, replicate 2 = 72688.
Knock-down of Atg18b [DRSC41204] came out at: averaged z-score -0.29; ATP luminescence, replicate 1 = 57871; ATP luminescence, replicate 2 = 76143.
Against CG4572 [DRSC15603], the entry reads averaged z-score -0.0429; ATP luminescence, replicate 1 = 1.04e5; ATP luminescence, replicate 2 = 77321.
For CG4572 [DRSC40944] the deposit lists averaged z-score -0.149; ATP luminescence, replicate 1 = 82036; ATP luminescence, replicate 2 = 65974.
For CG4572 [DRSC41188], the entry reads averaged z-score -0.0186; ATP luminescence, replicate 1 = 75999; ATP luminescence, replicate 2 = 72723.
For EndoB [DRSC07345], the values are averaged z-score 0.717; ATP luminescence, replicate 1 = 1.09e5; ATP luminescence, replicate 2 = 83455.
EndoB [DRSC36301] showed averaged z-score 0.186; ATP luminescence, replicate 1 = 83803; ATP luminescence, replicate 2 = 82051.
